Laboratory results taken from article PMC3556083.
No constants are given. Whether binding was seen depends on the method and setting. In cells and extracts the contact can be indirect. A yes stands for co-enrichment or nearness to the bait. Other partners may have been found.

B1: MYLK3 (protein, UniProt E9PT87 1-786)
chain: MSGVSEEDPEGLGPQGLPALGGACLVTVDKKLNVLTEKVDRLLHFQEDVTEKLQCVCQGMDHLEQGLHRLEASQELGLAGPGSTSPAAAQAAWPEVLELVRAVRQEGAQHGARLEALFKMVVAVDRAITLVGSTIQNSKVDDFILQGTVPWRKGSLADGPEENKEQAEVAGVKPKHVLNTGSVQAATSRALWEESQKQDTPVGTVEGLPLIIDTSLKGADLTQAGASLRQGVEALDPGQEPPPTEAESRLPALASEDTGTTLELSVAIDRISEVLTSLRMSQSAGEGTSSSKPDCSEPGPQPLGPLTTDSDIHSDEGLPRISVRMREMTTPEELFETQGGSPIGSAEAPGPGTVLEDQIPKGARPFPPLPKRSCNNGGASAEEATGPGAEPIRGPSLVTRDWRDEPVGTTDLQQGRDPGAVSPEPGKDHAAQGPGRTEAGRRVSSAAEAAIVVLDDSAAPPAPFEHRVVSIKDTLISTSYTVSQHEVLGGGRFGQVHRCTERSTGLALAAKIIKVKNIKDREDVKNEINIMNQLSHVNLIQLYDAFESKNSFTLIMEYVDGGELFDRITDEKYHLTELDVVLFTRQICEGVHYLHQHYILHLDLKPENILCVSQTGHQIKIIDFGLARRYKPREKLKVNFGTPEFLAPEVVNYEFVSFPTDMWSVGVITYMLLSGLSPFLGETDAETMNFIVNCSWDFDADTFKGLSEEAKDFVSRLLVKEKSCRMSATQCLKHEWLNHLIAKASGSNVRLRSQLLLQKYMAQRKWKKHFHVVTAVNRLRKFPTCP
B2: FGB (protein, UniProt P14480 19-479)
chain: ATTDSDKVDLSIARGHRPVDRRKEEPPSLRPAPPPISGGGYRARPAKVDAGQKKVERKPPDAGGCVHGDGDMGVLCPTGCELRQTLLNHERPIKNSIAELNSNINSVSETSSVTFQYLTLLKDMWKKKQAQVKDNENVINEYSSILEDQKLYIDETVNDNIPLNLRVLRSILEDLRSKIQKLESDISAQTEYCHTPCTVNCNIPVVSGKECEEIIRKGGETSEMYLIQPDTSSKPYRVYCDMKTENGGWTVIQNRQDGSVDFGRKWDPYKKGFGNIATNEDTKKYCGLPGEYWLGNDKISQLTRIGPTELLIEMEDWKGDKVKAHYGGFTVQTEANKYQVSVNKYKGTAGNALMEGASQLVGENRTMTIHNGMFFSTYDRDNDGWVTTDPRKQCSKEDGGGWWYNRCHAANPNGRYYWGGLYSWDMSKHGTDDGVVWMNWKGSWYSMRRMSMKIRPVFPQQ
B3: RAB3A (protein, UniProt P63012 1-220)
chain: MASATDSRYGQKESSDQNFDYMFKILIIGNSSVGKTSFLFRYADDSFTPAFVSTVGIDFKVKTIYRNDKRIKLQIWDTAGQERYRTITTAYYRGAMGFILMYDITNEESFNAVQDWSTQIKTYSWDNAQVLLVGNKCDMEDERVVSSERGRQLADHLGFEFFEASAKDNINVKQTFERLVDVICEKMSESLDTADPAVTGAKQGPQLTDQQAPPHQDCAC
B4: CAND1 (protein, UniProt P97536 1-1230)
chain: MASASYHISNLLEKMTSSDKDFRFMATNDLMTELQKDSIKLDDDSERKVVKMILKLLEDKNGEVQNLAVKCLGPLVSKVKEYQVETIVDTLCTNMLSDKEQLRDISSIGLKTVIGELPPASSGSALAANVCKKITGRLTSAIAKQEDVSVQLEALDIMADMLSRQGGLLVNFHPSILTCLLPQLTSPRLAVRKRTIIALGHLVMSCGNIVFVDLIEHLLSELSKNDSMSTTRTYIQCIAAISRQAGHRIGEYLEKIIPLVVKFCNVDDDELREYCIQAFESFVRRCPKEVYPHVSTIINICLKYLTYDPNYNYDDEDEDENAMDADGGDDDDQGSDDEYSDDDDMSWKVRRAAAKCLDAVVSTRHEMLPEFYKTVSPALISRFKEREENVKADVFHAYLSLLKQTRPVQSWLCDPDAMEQGETPLTMLQSQVPNIVKALHKQMKEKSVKTRQCCFNMLTELVNVLPGALTQHIPVLVPGIIFSLNDKSSSSNLKIDALSCLYVILCNHSPQVFHPHVQALVPPVVACVGDPFYKITSEALLVTQQLVKVIRPLDQPSSFDATPYIKDLFTCTIKRLKAADIDQEVKERAISCMGQIICNLGDNLGPDLSNTLQIFLERLKNEITRLTTVKALTLIAGSPLKIDLRPVLGEGVPILASFLRKNQRALKLGTLSALDILIKNYSDSLTAAMIDAVLDELPPLISESDMHVSQMAISFLTTLAKVYPSSLSKISGSILNELIGLVRSPLLQGGALSAMLDFFQALVVTGTNNLGYMDLLRMLTGPVYSQSTALTHKQSYYSIAKCVAALTRACPKEGPAVVGQFIQDVKNSRSTDSIRLLALLSLGEVGHHIDLSGQLELKSVILEAFSSPSEEVKSAASYALGSISVGNLPEYLPFVLQEITSQPKRQYLLLHSLKEIISSASVVGLKPYVENIWALLLKHCECAEEGTRNVVAECLGKLTLIDPETLLPRLKGYLISGSSYARSSVVTAVKFTISDHPQPIDPLLKNCIGDFLKTLEDPDLNVRRVALVTFNSAAHNKPSLIRDLLDSVLPHLYNETKVRKELIREVEMGPFKHTVDDGLDIRKAAFECMYTLLDSCLDRLDIFEFLNHVEDGLKDHYDIKMLTFLMLVRLSTLCPSAVLQRLDRLVEPLRATCTTKVKANSVKQEFEKQDELKRSAMRAVAALLTIPEAEKSPLMSEFQSQISSNPELAAIFESIQKDSSSTNLESMDTS
B5: FAM129A (protein, UniProt Q9ESN0 1-937)
chain: MGGSASSQLDEGKCAYIRGKTEASIKNFSPYYSRQYSVAFCNHVRSEVEQQRDLTSQFLKTKPPLEPGTVLYEAELSQFAEDIRKWKDRYVVVKNDFAVESYENKEAYQRGAVPKSRILPAGGKVLTSEEEYSLLSDKHFPDPTASSEKNSQPFLVLPKAFPVYLWQPYLRHGYFCFHEAAEQQKFSALLNDCIRHLNHDYMKQTTFEAQAFLEAVQFFRQEKGHYGAWEVITGDEVQILSKLVMEELLPTLQTDLLPKLKGKKNDRKRAWFGLLEEAYNLVQHQVSEGLSALKEECRALTKDLEGTIRSDMDQIVNSKNFLTGKIRAMVAQPAENRCGESVQPFLASILEELMGPVSSGFSEVRALFEKEVDELSQSFHTTQDGAQLKECLDQLMKLPLDSVKMEPCYTKVTLLPERLLDLQSRFRFPHVDLVVQRTQNYMQELMENAVFTFEQLLSPYLQGEASRTAVAIEKVKLRVLKQYDYDSSTIRKKIFQEALIQITLPTVQKALASTCKPELQKYEQFIFADHTNMIHVENIYEEILYQILLDETLKVITEAAILKKHNLFEDNMALPSESVSSLTDLKTSMGSNQASPARGASAILPGAPGDEAPGSEVFQGPEEKQQQPGVPGSLAREESASISGSSPPSGEDGQVSVSGVDNSAGNPLSADNSAGPLSSHLSEAEAGEPPKDEETAHKRPESSAVPGSLRELKELLTVTVFVESAPEIGNDTLNGTPVPQEDKKEEEEEEESKIHPEASGPAAIQQDSCEESEVREREAHPMPLEAEAPGVNLGTLPEGRGPTSQSTGEGLTENTSCLGPIEEPSEAQGPTEEVLLATVSTQDSTEAGGEAVHSVTVTPQEDATLSSNPICPVENNEGPQVSEDQEVLGGNDSPALAMDTEQINDAHVYECHWEVEDAPSADILDVHDCDVGSPGEW
B6: PSMC2 (protein, UniProt Q63347 1-433)
chain: MPDYLGADQRKTKEDEKDDKPIRALDEGDIALLKTYGQSTYSRQIKQVEDDIQQLLKKINELTGIKESDTGLAPPALWDLAADKQTLQSEQPLQVARCTKIINADSEDPKYIINVKQFAKFVVDLSDQVAPTDIEEGMRVGVDRNKYQIHIPLPPKIDPTVTMMQVEEKPDVTYSDVGGCKEQIEKLREVVETPLLHPERFVNLGIEPPKGVLLFGPPGTGKTLCARAVANRTDACFIPVIGSELVQKYVGEGARMVRELFEMARTKKACLIFFDEIDAIGGARFDDGAGGDNEVQRTMLELINQLDGFDPRGNIKVLMATNRPDTLDPALMRPGRLDRKIEFSLPDLEGRTHIFKIHARSMSVERDIRFELLARLCPNSTGAEIRSVCTEAGMFAIRARRKIATEKDFLEAVNKVIKSYAKFSATPRYMTYN
B7: RRAD (protein, UniProt P55043 1-306)
chain: MTLNGGSGAGGSRSAGRERDRRRGSTPWGPAPPLHRRSMPVDERDLQAALTPGSLAATAAGTRTQGQRLDWPEGSSDSLSSGDSGSEDGVYKVHAAGAPGVGKSALARIFGGVEDGPEAEAAGHTYDRSITVDGEEASLMVYDIWEQDGGCWLPGHCMAMGDAYVIVYSITDKGSFEKASELRVQLRARRQTDVPIILVGNKSDLVRSREVSVDEGRACAEVFDCKFIETSAALHHNVQALFEGVVRQIRLRRDSKEDNARRQAGTRRRESLGKKAKLFLGRIVARNSRKMAFLAKSKSCHDLSVL
B8: NOS3 (protein, UniProt Q62600 1-1202)
chain: MGNLKSVGQEPGPPCGLGLGLGLGLCGKQGPASPAPEPSQAPVPPSPTRPAPDHSPPLTRPPDGPKFPRVKNWEVGSITYDTLSAQAQQDGPCTPRRCLGSLVFPRKLQSRPTQGPSPTEQLLGQARDFINQYYNSIKRSGSQAHEQRLQEVEAEVVATGTYQLRESELVFGAKQAWRNAPRCVGRIQWGKLQVFDARDCRTAQEMFTYICNHIKYATNRGNLRSAITVFPQRYAGRGDFRIWNSQLVRYAGYRQQDGSVRGDPANVEITELCIQHGWTPGNGRFDVLPLLLQAPDEPPELFTLPPELVLEVPLEHPTLEWFAALGLRWYALPAVSNMLLEIGGLEFPAAPFSGWYMSSEIGMRDLCDPHRYNILEDVAVCMDLDTRTTSSLWKDKAAVEINVAVLYSYQLAKVTIVDHHAATASFMKHLENEQKARGGCPADWAWIVPPISGSLTPVFHQEMVNYFLSPAFRYQPDPWKGSAAKGTGITRKKTFKEVANAVKISASLMGTVMAKRVKATILYGSETGRAQSYAQQLGRLFRKAFDPRVLCMDEYDVVSLEHEALVLVVTSTFGNGDPPENGESFAAALMEMSGPYNSSPRPEQHKSYKIRFNSVSCSDPLVSSWRRKRKESSNTDSAGALGTLRFCVFGLGSRAYPHFCAFARAVDTRLEELGGERLLQLGQGDELCGQEEAFRGWAQAAFQAACETFCVGEDAKAAARDIFSPKRSWKRQRYRLSTQAESLQLLPRLTHVHRRKMFQATILSVENLQSSKSTRATILVRLDTGSQEGLQYQPGDHIGVCPPNRPGLVEALLSRVEDPPPSTEPVAVEQLEKGSPGGPPPGWVRDPRLPPCTLRQALTYFLDITSPPSPRLLRLLSTLAEESSEQQELEALSQDPRRYEEWKWFRCPTLLEVLEQFPSVALPAPLILTQLPLLQPRYYSVSSAPSAHPGEIHLTVAVLAYRTQDGLGPLHYGVCSTWMSQLKAGDPVPCFIRGAPSFRLPPDPNLPCILVGPGTGIAPFRGFWQDRLHDIEIKGLQPAPMTLVFGCRCSQLDHLYRDEVLDAQQRGVFGQVLTAFSRDPGSPKTYVQDLLRTELAAEVHRVLCLEQGHMFVCGDVTMATSVLQTVQRILATEGSMELDEAGDVIGVLRDQQRYHEDIFGLTLRTQEVTSRIRTQSFSLQERQLRGAVPWSFDPPTQETPGS

Target: β2-adrenergic receptor (UniProt P07550)
Test: affinity purification with mass spectrometry; purified Flag-β2AR in rHDL immobilised on M1 anti-Flag resin, occupied by 50 µM BI-167107 (full agonist) or 50 µM carazolol (inverse agonist); adult rat heart cytosol (10 mg/ml, 4 mM CaCl2) overnight at 4°C; eluted with FLAG peptide and EDTA; gel slices, LC-MS; proteins of the M1 resin, empty rHDL and Ni-NTA controls subtracted; hits of either or both samples; only the target purified

Binder	binding
B1	binds
B2	binds
B3	binds
B4	binds
B5	binds
B6	binds
B7	binds
B8	binds
